Data as given in PubChem BioAssay AID540276 (National Center for Advancing Translational Sciences (NCATS), 2011).
Screen size: about 300,000 compounds; about 5,400 (1.8%) were called active. Inconclusive results, whose numbers are uncertain, are shown with a selection of clear calls. Calls come from the whole dose curve; tested in HEK293 cells. Where the call is inconclusive, the potency comes from a doubtful curve fit.

Test: qHTS for inhibitors of binding or entry into cells for Marburg Virus
Conditions: Marburg virus pseudotyped entry inhibition, cell reporter; activity change, negative = inhibition: at 37.8 µM (top of the series) unless noted
% is set by controls: 0 for no effect and ±100 for the full control effect; potency is the fitted concentration of half-maximal effect.

Row | Structure (SMILES) | Potency | activity change, negative = inhibition
1 | Nc1cccc(C(=O)Nc2ccc(N)cc2Cl)c1 | inconclusive: 0.651 µM [activator, full curve, poor fit] | –
2 | COc1cc2cc(CN(CCc3cccc(C)c3)C(=S)NCCCN3CCOCC3)c(=O)[nH]c2cc1OC | active: 10 µM | –
3 | CCOC(=O)c1ccc(NC(=O)CCCc2nc(-c3cc(OC)c(OC)c(OC)c3)no2)cc1 | – | inactive: -6.77% [at 46.1 µM]
4 | Cc1nc2ccc(NS(=O)(=O)c3c(C)c(C)cc(C)c3C)cc2s1 | inconclusive: 12.6 µM [inhibitor, partial curve, poor fit] | –
5 | COc1ccc(Cc2nc(-c3cccc(C)c3)no2)cc1 | – | inactive: -2.06% [at 46.1 µM]
6 | O=C(/C=C\Nc1ccc2c(c1)OCO2)c1ccc2c(c1)OCO2 | inconclusive: 3.16 µM [inhibitor, partial curve, poor fit] | –
7 | COc1ccccc1Oc1ccc2c(c1)C(=O)N(c1ccc(C)cc1)C2=O | – | inactive: 14.9%
8 | O=C(NCc1ccncc1)C(=O)NCC1OCCN1S(=O)(=O)c1ccc(F)cc1 (centres undefined) | – | inactive: 10.1% [at 46.1 µM]
9 | Cc1ccc(/C=N\NC(=O)Cc2cccn2C)o1 | inconclusive: 35.5 µM [activator, single point] | –
10 | CCCCCn1c(N)c(C(=O)NCCN2CCOCC2)c2nc3ccccc3nc21 | inconclusive: 2.51 µM [inhibitor, full curve, poor fit] | –
11 | O=C1C(C=NCc2cccnc2)C(C(F)(F)F)=NN1c1nc2ccccc2s1 (centres undefined) | inconclusive: 3.98 µM [inhibitor, partial curve, poor fit] | –
12 | CC1CCc2sc(C(=O)N(C)CC(=O)Nc3ccc(N4CCOCC4)cc3)cc2C1 (centres undefined) | – | inactive: -2.64%
13 | Cc1nc(CS(=O)(=O)c2ccccc2)cc(Sc2ccc(Cl)cc2Cl)n1 | inconclusive: 35.5 µM [inhibitor, single point] | –
14 | Cc1c(Cl)cccc1NC(=O)c1ccco1 | – | inactive: -0.591%
15 | Cc1ccc(C(=O)N2CCN(c3ccc(NC(=S)NC(=O)c4cccs4)cc3)CC2)cc1 | active: 7.94 µM | –
16 | O=C(Nc1nc(-c2ccc(Cl)s2)cs1)c1ccncc1 | inconclusive: 11.6 µM [inhibitor, partial curve, poor fit] | –
17 | COC(=O)N=Nc1c(O)[nH]c2ccc(Br)cc12 | – | inactive: -14.2%
18 | Cc1ccc(Nc2c(-c3ccc(N4CCOCC4)cc3)nc3c(C)cccn23)cc1 | inconclusive: 17.8 µM [activator, single point] | –
19 | COc1ccc(Oc2ccccc2C#N)cc1 | inconclusive: 0.708 µM [inhibitor, full curve, poor fit] | –
20 | O=C(N/N=C/c1sc(N2CCOCC2)nc1-c1ccccc1)c1ccccc1O | active: 7.94 µM | –
21 | Cc1ccc(S(=O)(=O)c2cc3cc(Br)ccc3oc2=O)cc1 | – | inactive: -6.88%
22 | CCCCCc1nnc(NC(=O)Cn2cnc3ccccc3c2=O)s1 | – | inactive: -7.17%

Row | Structure (SMILES) | Potency | activity change, negative = inhibition
23 | CCCCCOC(=O)C1=C(C)Nc2ncnn2C1c1cccs1 (centres undefined) | inconclusive: 1.83 µM [inhibitor, partial curve, poor fit] | –
24 | O=C(NC(=S)Nc1cccc(Cl)c1N1CCCCC1)c1ccc2c(c1)OCCO2 | inconclusive: 2.82 µM [inhibitor, full curve] | –
25 | O=C1CN=C(c2ccccc2)c2oc3ccc(Br)cc3c2N1 | – | inactive: -8.25%
26 | CCN(CC)CC(=O)Nc1ccc(Cl)cc1C(=O)c1ccccc1 | inconclusive: 11.2 µM [inhibitor, single point] | –
27 | CCNc1ccc(S(=O)(=O)N(C)C)cc1NCC(=O)Nc1ccc(F)c(Cl)c1 | inconclusive: 22.4 µM [inhibitor, single point] | –
28 | NS(=O)(=O)c1cccc(NC(=S)NC(=O)c2cccc([N+](=O)[O-])c2)c1 | – | inactive: 25.6% [at 46.1 µM]
29 | CC(C)N(Cc1cn[nH]c1-c1ccc(-c2ccccc2)cc1)Cc1nccn1C | inconclusive: 5.62 µM [inhibitor, partial curve, poor fit] | –
30 | FC(F)(F)c1cccc(-c2ccn3ncnc3n2)c1 | inconclusive: 2.82 µM [activator, single point] | –
31 | COc1ccccc1NC(=S)N(CCc1nc2cc(C)c(C)cc2[nH]1)Cc1cccnc1 | inconclusive: 29.1 µM [inhibitor, single point] | –
32 | Cc1cccc(Nc2ccc([N+](=O)[O-])cc2C(=O)O)c1 | inconclusive: 3.16 µM [activator, full curve, poor fit] | –
33 | Cc1ccccc1OCCCCn1c(C2CC(=O)N(c3ccccc3Cl)C2)nc2ccccc21 (centres undefined) | inconclusive: 35.5 µM [inhibitor, partial curve, poor fit] | –
34 | CCCn1c(CCC(=O)Nc2cccc(C)c2C)nc2cccnc21 | – | inactive: 2.56% [at 46.1 µM]
35 | CC(C)NS(=O)(=O)c1ccc(OCC(=O)Nc2ccc3c(c2)OCO3)c(Cl)c1 | inconclusive: 12.6 µM [inhibitor, single point] | –
36 | O=C1/C(=C\c2ccc(Cl)c(Cl)c2)CN(C(=O)CCN2CCOCC2)C/C1=C/c1ccc(Cl)c(Cl)c1 | inconclusive: 2.82 µM [inhibitor, full curve, poor fit] | –
37 | Cc1cc2c(cc1S(=O)(=O)N(C)c1ccccc1)NC(=O)CO2 | inconclusive: 1.26 µM [inhibitor, full curve, poor fit] | –
38 | Cc1c(NC(=S)N/N=C/c2ccc(Br)cc2)c(=O)n(-c2ccccc2)n1C | – | inactive: -27.4%
39 | Cc1ccccc1NC(=O)NCCCN1CCN(c2ccccc2)CC1 | inconclusive: 0.082 µM [inhibitor, full curve, poor fit] | –
40 | COCc1c(C)cc(C)c(/C=N/O)c1C | inconclusive: 6.51 µM [inhibitor, single point] | –
41 | Cc1ccc2oc(-c3ccc(NC(=O)c4ccncc4)cc3O)nc2c1 | inconclusive: 12.6 µM [activator, single point] | –
42 | CCOC(=O)c1nn(-c2ccc(F)cc2)c(-c2ccccc2)c1C(=O)c1ccccc1 | inconclusive: 25.1 µM [inhibitor, single point] | –
43 | C/C(=N\Nc1ccc(S(N)(=O)=O)cc1[N+](=O)[O-])c1ccc2c(c1)OCO2 | inconclusive: 35.5 µM [inhibitor, single point] | –
44 | Oc1oc(-c2ccccc2)nc1/C=N/c1ccccn1 | inconclusive: 35.5 µM [inhibitor, single point] | –

10 compounds already listed, ordered by heavy-atom count, ascending:
Row | Structure (SMILES) | Potency | activity change, negative = inhibition
14 | Cc1c(Cl)cccc1NC(=O)c1ccco1 | – | inactive: -0.591%
30 | FC(F)(F)c1cccc(-c2ccn3ncnc3n2)c1 | inconclusive: 2.82 µM [activator, single point] | –
44 | Oc1oc(-c2ccccc2)nc1/C=N/c1ccccn1 | inconclusive: 35.5 µM [inhibitor, single point] | –
21 | Cc1ccc(S(=O)(=O)c2cc3cc(Br)ccc3oc2=O)cc1 | – | inactive: -6.88%
37 | Cc1cc2c(cc1S(=O)(=O)N(C)c1ccccc1)NC(=O)CO2 | inconclusive: 1.26 µM [inhibitor, full curve, poor fit] | –
34 | CCCn1c(CCC(=O)Nc2cccc(C)c2C)nc2cccnc21 | – | inactive: 2.56% [at 46.1 µM]
39 | Cc1ccccc1NC(=O)NCCCN1CCN(c2ccccc2)CC1 | inconclusive: 0.082 µM [inhibitor, full curve, poor fit] | –
38 | Cc1c(NC(=S)N/N=C/c2ccc(Br)cc2)c(=O)n(-c2ccccc2)n1C | – | inactive: -27.4%
35 | CC(C)NS(=O)(=O)c1ccc(OCC(=O)Nc2ccc3c(c2)OCO3)c(Cl)c1 | inconclusive: 12.6 µM [inhibitor, single point] | –
18 | Cc1ccc(Nc2c(-c3ccc(N4CCOCC4)cc3)nc3c(C)cccn23)cc1 | inconclusive: 17.8 µM [activator, single point] | –
